Source: patent publication US12263479B2, “Array microfluidic chip and method of antibiotic susceptibility testing” (MEDFLUID CO., LTD., priority 2021, dated 2025)
Converted amounts (≈) assume the structure as drawn.

Test system: S. aureus ATCC29213
Assay: antibiotic susceptibility testing on the array microfluidic chip (redox indicator discoloration)
Format: cell-based
Details: Staphylococcus aureus, ATCC29213, read-out: minimum inhibitory concentration
Excerpt: In the present experiment, the array microfluidic chip of the present disclosure is used to perform the antibiotic susceptibility testing on Escherichia coli ATCC25922 (“E. coli ATCC25922” hereafter) and Staphylococcus aureus ATCC29213 (“S. aureus ATCC29213” hereafter) to three antibiotics, namely Amikacin, Gentamicin and Vancomycin.
In the experiment, the dried powders of Amikacin, Gentamicin or Vancomycin are respectively placed in different reaction wells of the array microfluidic chip with different contents, and then the array microfluidic chip is sealed and keeps refrigerated. Next, redox indicators with proper amounts are respectively added to the bacteria-containing mediums including E. coli ATCC25922 or S. aureus ATCC29213, and the bacteria-containing mediums are transported to different reaction wells of different array microfluidic chips and then mixed with the antibiotic powders with different contents thereof so as to form the reaction solutions including different concentrations of antibiotics.
Next, the array microfluidic chips are placed in the incubator and cultured at 37° C., and the antibiotic susceptibilities of E. coli ATCC25922 and S. aureus ATCC29213 to Amikacin, Gentamicin and Vancomycin are further assessed based on the discoloration of the reaction solutions. […]

CN[C@H](CC(C)C)C(=O)N[C@H]1C(=O)N[C@@H](CC(N)=O)C(=O)N[C@H]2C(=O)N[C@H]3C(=O)N[C@H](C(=O)N[C@H](C(=O)O)c4cc(O)cc(O)c4-c4cc3ccc4O)[C@H](O)c3ccc(c(Cl)c3)Oc3cc2cc(c3O[C@@H]2O[C@H](CO)[C@@H](O)[C@H](O)[C@H]2O[C@H]2C[C@](C)(N)[C@H](O)[C@H](C)O2)Oc2ccc(cc2Cl)[C@H]1O [Vancomycin]
MIC: 0.5 µg/mL (≈ 0.345 µM)
